Measured values taken from the supplement of paper PMC4749390.
Where a name gives a salt, the structure may show the parent alone. The list shows a part of the results. Repeats in this data set agree poorly, so a single value says little.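 JEG3 cells stably express tetracycline-inducible wild-type human LRH-1, a highly sumoylated nuclear receptor. SUMO-sensitive transcripts APOC3 and MUC1, increased by SUMO-deficient LRH-1 or UBC9 knockdown, were quantified by RT-qPCR relative to TBP and DMSO controls. Primary hits had robust Z-scores above +2 or below -2, before toxicity and TBP filtering.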

System: JEG3 expressing hLRH-1
Test: MUC1 transcript change (ddCt vs TBP and DMSO), Z-score over library; higher = higher MUC1 expression
Conditions: 10 µM; time (hr): 24

Compound	MUC1 transcript change (Z-score)
CC(=O)Nc1ncc([N+](=O)[O-])s1 [nithiamide]	0.94
CN(C)CCCOc1nn(Cc2ccccc2)c2ccccc12 [benzydamine hydrochloride]	-1.38
C[n+]1cc2c3c(ccc2c2ccc4cc5c(cc4c21)OCO5)OCO3 [Sanguinarine chloride]	0.47
CN(C)CCc1c[nH]c2ccc(Cn3cncn3)cc12 [rizatriptan benzoate]	0.311
CO[C@@]1(NC(=O)Cc2cccs2)C(=O)N2C(C(=O)O)=C(COC(N)=O)CS[C@@H]21 [cefoxitin sodium]	-0.288
CC1(C)OC(=O)NC1=O [dimethadione]	-0.289
C=C[C@H]1CN2CC[C@H]1C[C@@H]2[C@H](O)c1ccnc2ccc(OC)cc12 [quinine sulfate]	0.173
COc1ccc(NS(=O)(=O)c2ccc(N)cc2)nn1 [sulfamethoxypyridazine]	0.263
O=C(CCBr)N1CCN(C(=O)CCBr)CC1 [pipobroman]	0.428
Cc1ccc(S(=O)(=O)NC(=O)NN2CC3CCCC3C2)cc1 (configuration not stated) [gliclazide]	-0.0549
Cc1ncc(CSSCc2cnc(C)c(O)c2CO)c(CO)c1O [pyritinol]	-0.471
CC(C(=O)O)c1ccc(N2Cc3ccccc3C2=O)cc1 (configuration not stated) [indoprofen]	0.243
C=C1C[C@H]2[C@@H]3C=C(C)C4=CC(=O)CC[C@]4(C)[C@H]3CC[C@]2(C)[C@@]1(OC(C)=O)C(C)=O [melengestrol acetate]	0.0525
O=C(O)CCCc1ccccc1 [phenylbutyric acid]	1.17
CC1=CC(=O)NS(=O)(=O)O1 [acesulfame potassium]	0.701
CCCC(=O)Nc1ncnc2c1ncn2[C@@H]1O[C@@H]2COP(=O)(O)O[C@H]2[C@H]1OC(=O)CCC [bucladesine]	0.319
CCOc1cc(CC(=O)N[C@@H](CC(C)C)c2ccccc2N2CCCCC2)ccc1C(=O)O [repaglinide]	-0.173
CN(C)C(=N)N=C(N)N [metformin hydrochloride]	0.409
CN[C@@H]1C(OC2[C@H](O[C@H]3[C@H](O)[C@@H](O)[C@H](N=C(N)N)[C@@H](O)[C@@H]3N=C(N)N)OC(C)[C@]2(O)CO)OC(CO)C(O)C1O (some centres not stated) [dihydrostreptomycin sulfate]	0.366
O=C1C(O)=C(O)O[C@@H]1C(O)CO (some centres not stated) [ascorbic acid]	0.467
CC(=O)Oc1cccc(O)c1 [resorcinol monoacetate]	-0.58
CCN1CCN(C(=O)N[C@@H](C(=O)N[C@@H]2C(=O)N3[C@@H]2SC(C)(C)[C@@H]3C(=O)O)c2ccccc2)C(=O)C1=O [piperacillin sodium]	0.511
Cc1ncc([N+](=O)[O-])n1CCO [metronidazole]	-0.236
Nc1ccc(S(=O)(=O)O)cc1 [sulfanilate zinc]	1.1
O=C(Oc1ccccc1C(=O)O)c1ccccc1O [salsalate]	0.0339
CC(=O)OC/C=C(C)/C=C/C=C(C)/C=C/C1=C(C)CCCC1(C)C [retinyl acetate]	0.273

4 entries from above, set out differently:
Cc1ccc(S(=O)(=O)NC(=O)NN2CC3CCCC3C2)cc1 (configuration not stated) [gliclazide]
  MUC1 transcript change (Z-score): -0.0549
Cc1ncc(CSSCc2cnc(C)c(O)c2CO)c(CO)c1O [pyritinol]
  MUC1 transcript change (Z-score): -0.471
CC(C(=O)O)c1ccc(N2Cc3ccccc3C2=O)cc1 (configuration not stated) [indoprofen]
  MUC1 transcript change (Z-score): 0.243
C=C1C[C@H]2[C@@H]3C=C(C)C4=CC(=O)CC[C@]4(C)[C@H]3CC[C@]2(C)[C@@]1(OC(C)=O)C(C)=O [melengestrol acetate]
  MUC1 transcript change (Z-score): 0.0525

Carrying on:

Compound	MUC1 transcript change (Z-score)
C[N+](C)(C)CCOC(N)=O [Carbachol]	0.897
O=c1[nH]c(=O)n([C@H]2C[C@H](O)C(CO)O2)cc1I (some centres not stated) [idoxuridine]	3.85
CCOC(=O)[C@H](CCc1ccccc1)N[C@@H](C)C(=O)N1CCC[C@H]1C(=O)O [enalapril maleate]	0.305
C=CC[C@@H]1/C=C(\C)C[C@H](C)C[C@H](OC)[C@H]2O[C@@](O)(C(=O)C(=O)N3CCCC[C@H]3C(=O)O[C@H](/C(C)=C/[C@@H]3CC[C@@H](O)[C@H](OC)C3)[C@H](C)[C@@H](O)CC1=O)[C@H](C)C[C@@H]2OC [tacrolimus]	0.759
NC[C@H]1O[C@H](O[C@H]2[C@H](O[C@@H]3O[C@H](CO)[C@@H](O)[C@H]3O)[C@@H](O)[C@H](N)C[C@@H]2N)[C@H](N)[C@@H](O)[C@@H]1O [ribostamycin sulfate]	0.103
O=C(O)c1cc(=O)c2ccccc2o1 [chromocarb]	0.0625
COc1cc(/C=C/C(N)=O)cc(OC)c1OC [cintriamide]	0.184
NCCS(=O)(=O)O [taurine]	1.19
CC(=O)c1ccc2c(c1)N(CCCN1CCC(CCO)CC1)c1ccccc1S2 [piperacetazine]	-0.178
Cc1cccc(C)c1NC(=O)C1CCCCN1C (configuration not stated) [mepivacaine hydrochloride]	0.5
COc1cc(C(=O)NCCCCCC(=O)O)cc(OC)c1OC [capobenic acid]	0.309
Oc1c(I)cc(I)c2cccnc12 [iodoquinol]	0.722
CCCc1nn(C)c2c(O)nc(-c3cc(S(=O)(=O)N4CCN(C)CC4)ccc3OCC)nc12 [sildenafil]	0.459
CCCCCC(C)N (configuration not stated) [tuaminoheptane sulfate]	0.944
O=C(NCCCN1CCOCC1)c1ccc(Cl)cc1 [eprobemide]	0.263
OC[C@H]1O[C@@H](n2cnc3c(O)ncnc32)[C@H](O)[C@@H]1O [inosine]	-1.45
Cn1cnc2c1c(=O)[nH]c(=O)n2C [Theobromine]	0.706
CS(=O)(=O)c1ccc([C@@H](O)[C@@H](CO)NC(=O)C(Cl)Cl)cc1 [thiamphenicol]	0.142
NC[C@@H]1CC[C@@H](N)[C@@H](O[C@H]2[C@H](O)[C@@H](O[C@H]3O[C@H](CO)[C@@H](O)[C@H](N)[C@H]3O)[C@H](N)C[C@@H]2N)O1 [dibekacin]	0.222
O=S(=O)(O)CCS [mesna]	0.0903
CC(C)NCC(O)COc1ccc(COCCOC(C)C)cc1 (configuration not stated) [bisoprolol fumarate]	0.999
CCOc1cc(NC(C)=O)ccc1C(=O)OC [ethopabate]	1.09
Nc1nc(N)nc(-c2cc(Cl)ccc2Cl)n1 [irsogladine maleate]	0.0142
Nc1nc(Cl)nc2c1ncn2[C@@H]1O[C@H](CO)[C@@H](O)[C@@H]1F [clofarabine]	-3.06
CC(C)(Oc1ccc(C(=O)c2ccc(Cl)cc2)cc1)C(=O)O [fenofibric acid]	1.18
Cc1c(OCC(F)(F)F)ccnc1C[S@@](=O)c1nc2ccccc2[nH]1 [dexlansoprazole]	-0.0323
